Source: US20260028402A1
Results are given in words; binding and its absence hold for the method and conditions named. Some entries that bind do so weakly or less than the wild type.

Chains of the proteins cited; added tags and fusions are not shown. Lines headed by an entry give the natural chain unless they say otherwise; changes in a name come on top. A line that says so, or that is headed by a name, gives the form on record, which may keep a tag or linker. Residues count along the entry.
cynomolgus monkey PD-L1 on cells (G7PSE7, form named): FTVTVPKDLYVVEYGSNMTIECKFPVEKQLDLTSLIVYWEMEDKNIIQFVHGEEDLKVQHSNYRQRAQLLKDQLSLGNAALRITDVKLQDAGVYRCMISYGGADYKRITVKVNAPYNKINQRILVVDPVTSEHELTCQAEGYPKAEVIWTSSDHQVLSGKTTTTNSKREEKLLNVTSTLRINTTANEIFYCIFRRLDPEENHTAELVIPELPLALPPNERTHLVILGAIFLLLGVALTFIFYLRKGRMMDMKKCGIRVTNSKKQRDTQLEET
UniProt Q9NZQ7, residues 19-239: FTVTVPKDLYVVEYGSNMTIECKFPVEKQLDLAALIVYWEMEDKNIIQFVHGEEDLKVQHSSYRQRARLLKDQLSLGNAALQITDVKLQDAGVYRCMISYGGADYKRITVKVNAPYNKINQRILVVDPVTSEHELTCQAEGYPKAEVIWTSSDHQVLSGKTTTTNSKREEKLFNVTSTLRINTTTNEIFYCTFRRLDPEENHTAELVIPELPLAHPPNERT

Tests used:
[1] = target: cynomolgus monkey PD-L1 on cells (cynomolgus monkey) (UniProt G7PSE7); assay: flow cytometry on cynomolgus monkey PD-L1-CHO cells
[2] = target: B7-H1 (i.e., PD-L1) protein (Sino Biological, 10084-HNAH) (UniProt Q9NZQ7); assay: ELISA, protein coated at 2 ug/mL; legend: +: Binding activity detected
[3] = target: B7-H1 (i.e., PD-L1) protein (Sino Biological, 10084-HNAH) (UniProt Q9NZQ7); assay: ELISA, protein coated at 2 ug/mL

Measured: binding

B1: m18 (antibody, human IgG1, V domains shown)
VH: EVQLVESGGGLVQPGGSLRLSCAASRTDSNIHGMHWYRQAPGKGREWVGMIFIDGNTIVTDSVKGRFTISRDNAKNTLYLQMNTLRAEDTAVYYCAADSRGYGRAWGQGTTVTVSS
binds: all assays above
